Values of other authors as cited in PMC12810351, “Structure-effect relationship of phenolic compounds on α-amylase inhibition studied by isothermal titration calorimetry” (Current Research in Food Science, 2025).
Like-named read-outs stand apart in the source and are kept apart here.

Key:
α-amylase [1] = tested on: α-amylase; set-up: method as in Narita and Inouye (2011); conditions: substrate G2-pNP, pNP UV/Vis; ref Narita and Inouye (2011); cited from earlier work
α-amylase [2] = tested on: α-amylase; set-up: method as in Kaeswurm et al. (2019); conditions: substrate GalG2CNP, CNP UV/Vis; ref Kaeswurm et al. (2019); cited from earlier work
α-amylase [3] = conditions: substrate starch, DNS UV/Vis, cited from earlier work

Q: With `O=C(/C=C/c1ccc(O)c(O)c1)O[C@@H]1C[C@](O)(C(=O)O)C[C@@H](O)[C@H]1O` [CA, Chlorogenic acid] as the compound, how does the inhibition type (α-amylase [1]) read?
A: mixed

Q: And the inhibition type (α-amylase [2])?
A: mixed

Q: With `OC[C@H]1O[C@@H](Oc2cc3c(O)cc(O)cc3[o+]c2-c2ccc(O)c(O)c2)[C@H](O)[C@@H](O)[C@@H]1O` [CYD-3-glc, cyanidin-3-O-glucoside] as the compound, how does the inhibition type (α-amylase [3]; ref Sui et al. (2016)) read?
A: competitive

Q: Which inhibition type (α-amylase [2]) does the source give for `O=C(O[C@@H]1Cc2c(O)cc(O)cc2O[C@@H]1c1cc(O)c(O)c(O)c1)c1cc(O)c(O)c(O)c1` [EGCG, epigallocatechin gallate] here?
A: mixed

Q: With `COc1cc(/C=C/C(=O)O)ccc1O` [FA, ferulic acid] as the compound, how does the inhibition type (α-amylase [1]) read?
A: mixed

Q: With `O=C(CCc1ccc(O)cc1)c1c(O)cc(O)cc1O[C@@H]1O[C@H](CO)[C@@H](O)[C@H](O)[C@H]1O` [PHL, phlorizin] as the compound, how does the inhibition type (α-amylase [2]) read?
A: mixed

Q: Which inhibition type (α-amylase [3]; ref Li et al. (2009)) does the source give for `O=c1c(O[C@@H]2O[C@H](CO)[C@@H](O)[C@H](O)[C@H]2O)c(-c2ccc(O)c(O)c2)oc2cc(O)cc(O)c12` [Q-3-glc, quercetin-3-O-glucoside] here?
A: competitive

Q: With `C[C@@H]1O[C@@H](OC[C@H]2O[C@@H](Oc3c(-c4ccc(O)c(O)c4)oc4cc(O)cc(O)c4c3=O)[C@H](O)[C@@H](O)[C@@H]2O)[C@H](O)[C@H](O)[C@H]1O` [rutin, quercetin-3-O-rutinoside] as the compound, how does the inhibition type (α-amylase [3]; ref Li et al. (2009)) read?
A: competitive
